Source: PubChem BioAssay AID590 (National Center for Advancing Translational Sciences (NCATS), 2007)
The whole screen tested about 59,000 compounds, of which about 6,500 (11%) were called active. The inconclusive results got no clear call from the source; some entries with a clear call stand among them for comparison. Cut-off read from the data, not from the text of the source: active = max dye-equivalent concentration above about 10 nM; inconclusive = mostly about 1.1 nM to 9.6 nM; inactive = weaker than that.

Assay: qHTS Assay for Spectroscopic Profiling in A350 Spectral Region
Settings: Compound autofluorescence, 340/450 nm, Alexa 350 dye-equivalents; active compounds read high

SMILES | max dye-equivalent concentration
C[C@@H]1CCCN(CP(=O)(c2ccccc2)c2ccccc2)C1 | inactive
CCCCCc1c(O)c2ccccc2[nH]c1=O | inactive
O=C(c1ccncc1)N1CCC[C@@]2(CCN(Cc3cc(C(F)(F)F)cc(C(F)(F)F)c3)C2)C1 | inactive
CCc1cc(C(N)=S)ccn1 | inactive
O=C(Nc1cccnc1)c1c(O)c2cccc3c2n(c1=O)CC3 | inconclusive: 1.2 nM
CCOC(=O)c1ccccc1NC(=O)Cn1cnc2c(oc3ccccc32)c1=O | inconclusive: 4.4 nM
Cc1ccc(C(=O)Nc2ccc(S(=O)(=O)O)c3cc(S(=O)(=O)O)cc(S(=O)(=O)O)c23)cc1NC(=O)c1cccc(NC(=O)Nc2cccc(C(=O)Nc3cc(C(=O)Nc4ccc(S(=O)(=O)O)c5cc(S(=O)(=O)O)cc(S(=O)(=O)O)c45)ccc3C)c2)c1 | inactive
CCOC(=O)c1ccc2ncc(C(=O)OCC)c(NCc3ccco3)c2c1 | active: 38 nM
CCN(CC)CCN1C(=O)C(O)=C(C(=O)c2ccc(C)o2)C1c1ccccn1 (stereo not drawn) | inactive
CCOC(=O)c1[nH]c2cc(OC)c(OC)cc2c1NC(=O)CN(C)C1CCCCC1 | inconclusive: 6.4 nM
O=C(CN1C(=O)NC2(CCc3ccccc32)C1=O)Nc1cc(C(F)(F)F)ccc1N1CCOCC1 (stereo not drawn) | inconclusive: 1.3 nM
CCCCN(C(=O)c1c(C)[nH]c(C(=O)OCC)c1C)c1ccccc1 | inconclusive: 3.4 nM
O=C(c1ccc(N2CCOCC2)nc1)N1CCCCC1 | inconclusive: 2 nM
CCOC(=O)C1CCN(C(c2cc3cc(C)cc(C)c3[nH]c2=O)c2nnnn2C2CCCCC2)CC1 (stereo not drawn) | inconclusive: 3.5 nM
c1ccc2c(c1)nnn2Cc1nnc2sc(-c3ccc4c(c3)OCCO4)nn12 | inactive
CCc1cc(=O)oc2cc(C)c(CN3CCCC3)c(O)c12 | inconclusive: 5.4 nM
CCn1c(SCC(=O)Nc2nccs2)nnc1-c1ccncc1 | inactive
CN(Cc1ccco1)c1ncnc2ccc(-c3cccc(NS(C)(=O)=O)c3)cc12 | inconclusive: 2.7 nM
O=C(Nc1ccon1)c1cccc(Cl)c1 | inactive
C[C@H]1C[C@H]2[C@H]3CCC4=CC(=O)C=C[C@@]4(C)[C@]3(F)[C@H](O)C[C@]2(C)[C@@]1(O)C(=O)COP(=O)(O)O | inactive
CCc1cc(=O)oc2cc(OCC(=O)N3CCc4ccccc43)ccc12 | active: 350 nM
CCCC(=O)C1=C(c2ccccc2)C(C#N)(C#N)C(C#N)=C1N | inconclusive: 1.2 nM

SMILES | max dye-equivalent concentration
Cc1cc(NS(=O)(=O)c2ccc(NC(=O)Nc3cccc(Cl)c3)cc2)no1 | inconclusive: 1.2 nM
COc1cc(OC)c(/C=C2/C(=O)Nc3ccccc32)c(OC)c1 | inactive
CCOc1ccccc1-n1c(SCC(N)=O)nnc1-c1ccco1 | inactive
COc1ccc(-c2nc(C#N)c(NC(C)C)o2)cc1 | inconclusive: 8.8 nM
CC(Oc1ccc(Cl)cc1Cl)C(=O)Nc1ccc2oc(-c3ccncc3)nc2c1 (stereo not drawn) | active: 47 nM
COc1ccccc1CN(Cc1cc2c(C)ccc(C)c2[nH]c1=O)Cc1nnnn1Cc1ccco1 | inconclusive: 7 nM
COc1ccccc1CNc1ncnc2ccc(-c3ccccc3CN(C)C)cc12 | inconclusive: 9.9 nM
CCOC(=O)c1cc2c(ccn2C)n1CC(=O)N1CCC(Cc2ccccc2)CC1 | inconclusive: 1.1 nM
O=C(O)c1c[nH]c2c(ccc3[nH]cc(C(=O)O)c(=O)c32)c1=O | inconclusive: 9.9 nM
COCCCNC(=O)Cn1nnc(-c2ccccc2NC(=O)c2ccccc2F)n1 | inactive
CCCc1c(CC)c(=N)c2ccccc2n1C | inactive
COc1cccc2[nH]c3c(N4CCN(Cc5ccc6c(c5)OCO6)CC4)ncnc3c12 | active: 99 nM
Nc1sc2c(c1C(=O)NC1CCS(=O)(=O)C1)CCC2 (stereo not drawn) | inconclusive: 1.4 nM
CN(C1CCCCC1)S(=O)(=O)c1ccc(-n2cnnn2)cc1 | inconclusive: 1.8 nM
CCCOc1ccc(/C(O)=C2/C(=O)C(=O)N(CCOC)C2c2cccnc2)cc1 (stereo not drawn) | inconclusive: 1.7 nM
COC(=O)c1cc(Br)c(=O)n(Cc2ccncc2)c1 | inconclusive: 1.9 nM
COc1ccc(Cl)cc1CN1CCN(c2nc(C)cc(C)c2C#N)CC1 | inactive
Cc1ccc(NC(=O)Cn2c(C)cc(C)c(C#N)c2=O)c(Cl)c1 | inconclusive: 2.1 nM
CCOc1cc2[nH]c(=S)n(CCCOC)c(=O)c2cc1OCC | inconclusive: 1.8 nM
O=C(Nc1ccc(S(=O)(=O)C(F)F)cc1)c1cccc(S(=O)(=O)N2CCOCC2)c1 | inactive
CCOC(=O)C1CCCN(CC(=O)Nc2c(C(=O)OC)[nH]c3ccc(C)cc23)C1 (stereo not drawn) | inconclusive: 6.1 nM
O=C(Nc1ccc2c(c1)OCCO2)c1cc(-n2cnnc2)ccc1Cl | inactive

SMILES | max dye-equivalent concentration
NC(=O)CSc1nnc(COc2ccccc2)n1C1CCCCC1 | inconclusive: 2.3 nM
CCOC(=O)CSc1nnc(-c2nnc(SCC(=O)OCC)n2CC)n1CC | inconclusive: 1.9 nM
COC(=O)c1[nH]c2ccc(C)cc2c1NS(=O)(=O)c1ccc(F)c(C)c1 | inconclusive: 1.2 nM
O=C(CCn1nc(-c2ccc(Cl)cc2)ccc1=O)N1CCN(c2ccccn2)CC1 | inactive
CNC(=O)CN(C1CCCCC1)S(=O)(=O)c1ccc(F)cc1 | inconclusive: 6 nM
Fc1ccc(CNc2nc(-c3ccco3)cc(C(F)(F)F)n2)cc1 | active: 24 nM
CCOc1ccc(N2C(=O)c3cccnc3C2Nc2ccc(Cl)cc2)cc1 (stereo not drawn) | inactive
Oc1oc(-c2ccccc2)nc1C=NCc1ccncc1 | inconclusive: 2.4 nM
O=C(NCCN1CCOCC1)c1ccc(-c2ccccc2)cc1 | inactive
Cc1ccc2nc3c(cc(C#N)c(=N)n3CC3CCCO3)c(=O)n2c1 (stereo not drawn) | active: 680 nM
Cc1ccc(-c2noc(C3CCCN(C(=O)c4ccccc4)C3)n2)o1 (stereo not drawn) | inconclusive: 1.9 nM
CCOC(=O)Cn1c(C)c(Br)c(=O)c2cccc(C)c21 | inconclusive: 2 nM
Cc1ccc(S(=O)(=O)N2CCCN(S(=O)(=O)C3CCS(=O)(=O)C3)CC2)cc1 (stereo not drawn) | inactive
COC(=O)c1[nH]c2ccccc2c1NS(=O)(=O)c1ccc(F)c(C)c1 | inconclusive: 9.2 nM
O=C1CCCc2c1cc(C(=O)NCc1ccco1)c(=O)n2-c1ccccc1 | inconclusive: 1.1 nM
C=CCN1C(=O)CSC1=Nc1cccc(O)c1 | inactive
Cn1c(CN2CCOCC2)c(C#N)c2ccccc21 | inconclusive: 6.2 nM
O=C1CCNc2cc3ccccc3cc21 | active: 420 nM
CCOC(=O)Cc1[nH]nc2c1C(c1cc(OC)ccc1OC)C(C#N)=C(N)O2 (stereo not drawn) | inconclusive: 4.6 nM
Cc1cc(N2CCOCC2)n2nc(C)c(-c3ccccc3)c2n1 | active: 13 nM
Cn1c(SCc2ccccc2)nnc1C1CCCNC1 (stereo not drawn) | inconclusive: 5.2 nM
O=c1oc2ccccc2c(N2CCCCC2)c1CN1CCCCC1 | inconclusive: 4.1 nM

SMILES | max dye-equivalent concentration
COc1ccc(Oc2ncc3nc(-c4ccccc4)c(=O)n(CCC#N)c3n2)cc1 | inconclusive: 4 nM
CCCCN(CC)CCNC(=O)CN(C)S(=O)(=O)c1ccc2c(c1)c(=O)n(C)c(=O)n2C | inconclusive: 2.3 nM
COc1cc([C@@H]2c3cc4c(cc3[C@H](O)[C@H]3COC(=O)[C@H]23)OCO4)cc(OC)c1OC | inconclusive: 2.8 nM
CC(=O)NCCn1c(SCc2cc(=O)n3cc(Cl)ccc3n2)nc2ccccc2c1=O | active: 46 nM
O=C(CSc1nc2ccccc2o1)N1CCCC1 | inconclusive: 1.2 nM
CS(=O)(=O)c1ccc2nc(NC(=O)c3cccs3)sc2c1 | inconclusive: 8.7 nM
CCOC(=O)C1CCN(C(=O)CC(NS(=O)(=O)c2ccc(OC)cc2)C(C)C)CC1 (stereo not drawn) | inconclusive: 4.3 nM
CCCCOC(=O)c1ccc(N2C(=O)CC(N3CCN(C/C=C/c4ccccc4)CC3)C2=O)cc1 (stereo not drawn) | inconclusive: 1.6 nM
O=C(COC(=O)C1CCCO1)Nc1cccc(C(F)(F)F)c1 (stereo not drawn) | inconclusive: 2.6 nM
C[N+]1([C@H](CO)Cc2c[nH]c3ccccc23)Cc2ccccc2C1 | inconclusive: 2.9 nM
COc1ccc(OCC(=O)N2CCN(C(=O)COc3ccc(Br)cc3)CC2)cc1 | inactive
Cc1ccc2[nH]c3c(c2c1)CCCC3C(N)=O (stereo not drawn) | inconclusive: 1.8 nM
CSc1nc2c(ccc3ccccc32)o1 | inconclusive: 1.2 nM
COC(=O)c1ccc(C(=S)N2CCOCC2)cc1 | inconclusive: 3.8 nM
C=CCn1c(SCC(=O)Nc2cc(NC(C)=O)ccc2OC)nnc1-c1cccnc1 | inconclusive: 6.7 nM
COc1cc(C2Nc3ccc4ncccc4c3C3=C2C(=O)CCC3)ccc1O (stereo not drawn) | inconclusive: 1.7 nM
CCOC(=O)c1cc2sc(C)cc2n1CC(=O)NCCc1ccccc1 | inactive
Cc1nc(C)c(C(=O)Nc2nc3c(C)cccc3s2)o1 | active: 22 nM
COc1cccc2c1OC1(C)CC2NC(=O)N1c1cccc(C(=O)Nc2ccc3c(c2)OCCO3)c1 (stereo not drawn) | inactive
COc1cccc(-c2nc(NCc3ccccc3OC)c3ccccc3n2)c1 | inactive
COc1cccc(Cn2c(=O)c(-c3cc(F)cc(F)c3)nc3cnc(N4CCOCC4)nc32)c1 | inconclusive: 1.3 nM
CCCCn1c(SCC(=O)NCc2ccco2)nnc1-c1ccoc1C | inconclusive: 5.2 nM

Copied from above (16 entries):
SMILES | max dye-equivalent concentration
COc1ccc(Oc2ncc3nc(-c4ccccc4)c(=O)n(CCC#N)c3n2)cc1 | inconclusive: 4 nM
CCCCN(CC)CCNC(=O)CN(C)S(=O)(=O)c1ccc2c(c1)c(=O)n(C)c(=O)n2C | inconclusive: 2.3 nM
COc1cc([C@@H]2c3cc4c(cc3[C@H](O)[C@H]3COC(=O)[C@H]23)OCO4)cc(OC)c1OC | inconclusive: 2.8 nM
CC(=O)NCCn1c(SCc2cc(=O)n3cc(Cl)ccc3n2)nc2ccccc2c1=O | active: 46 nM
O=C(CSc1nc2ccccc2o1)N1CCCC1 | inconclusive: 1.2 nM
CS(=O)(=O)c1ccc2nc(NC(=O)c3cccs3)sc2c1 | inconclusive: 8.7 nM
CCOC(=O)C1CCN(C(=O)CC(NS(=O)(=O)c2ccc(OC)cc2)C(C)C)CC1 (stereo not drawn) | inconclusive: 4.3 nM
CCCCOC(=O)c1ccc(N2C(=O)CC(N3CCN(C/C=C/c4ccccc4)CC3)C2=O)cc1 (stereo not drawn) | inconclusive: 1.6 nM
O=C(COC(=O)C1CCCO1)Nc1cccc(C(F)(F)F)c1 (stereo not drawn) | inconclusive: 2.6 nM
C[N+]1([C@H](CO)Cc2c[nH]c3ccccc23)Cc2ccccc2C1 | inconclusive: 2.9 nM
COc1ccc(OCC(=O)N2CCN(C(=O)COc3ccc(Br)cc3)CC2)cc1 | inactive
Cc1ccc2[nH]c3c(c2c1)CCCC3C(N)=O (stereo not drawn) | inconclusive: 1.8 nM
CSc1nc2c(ccc3ccccc32)o1 | inconclusive: 1.2 nM
COC(=O)c1ccc(C(=S)N2CCOCC2)cc1 | inconclusive: 3.8 nM
C=CCn1c(SCC(=O)Nc2cc(NC(C)=O)ccc2OC)nnc1-c1cccnc1 | inconclusive: 6.7 nM
COc1cc(C2Nc3ccc4ncccc4c3C3=C2C(=O)CCC3)ccc1O (stereo not drawn) | inconclusive: 1.7 nM
